Measured values: patent US5079231A (Ellem Industria Farmaceutica S.p.A., priority 1988, dated 1992)
Some peptides are written in HELM: one residue between dots, names in brackets for other building blocks, links after the first $.

Assay: general procedure: Boc solid-phase peptide synthesis; resins substituted with Boc-aminoacids
Conditions: whole synthesis

Q: For PEPTIDE1{R.A.R.R.K.E.R.A.R}$$$$V2.0, which “final HPLC purity” value is on record?
A: 99.2%

Q: For PEPTIDE1{R.A.R.R.K.E}$$$$V2.0, which “final HPLC purity” value is on record?
A: 99.81%

Q: For PEPTIDE1{R.K.E.R.A.R}$$$$V2.0, which “final HPLC purity” value is on record?
A: 98,62%

Q: Which “final HPLC purity” value does the source give for PEPTIDE1{R.K.E.R.[dA].R}$$$$V2.0 here?
A: 99.2%

Q: Which “final HPLC purity” value does the source give for PEPTIDE1{R.[dA].R.R.K.E}$$$$V2.0 here?
A: 99.1%
